The text below walks through data of EP4389150A1 (Technische Universität München, priority 2022, dated 2024).

The series can be described thus: general procedure: Fmoc solid-phase peptide synthesis; 2-CTC resin (0.97 mmol/g). Conditions: conjugation step.

For “DOTAGA-n-Lys(Ruc-Sub)-n-Asp-β-Ala-TXA-L-Nal-KuE”, the conjugation yield worked out at 24%.
